Data as given in PubChem BioAssay AID743454 (Peter MacCallum Cancer Centre, 2014)

Screen: 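Search for knock-downs that restore vorinostat killing in resistant colon cancer cells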 (primary screen)
Cell system: human HCT116-VR colon cancer cells, selected for vorinostat resistance
Reagent: siRNA pool against human genes, 40 nM siRNA pool
Duration: vorinostat for 24 h, read-out about 72 h after transfection
Conditions: vorinostat at 2.5 µM final
Read-out: 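Cell viability by CellTiter-Fluor and caspase 3/7 activity by luminescence, each scaled to mock wells per plate, duplicates averaged, then robust z-scored over all plates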
Scale: viability robust z-score: higher = more viable cells than screen typical; caspase robust z-score: higher = more caspase 3/7 activity than screen typical
Active means: 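a knock-down is a hit when classed RV1 or RV2 for lowered viability, or CA1 or CA2 for caspase activation; those lethal without drug were dropped; hits were retested singly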
The deposit covers about 18,000 reagents; below is an unselected part. 450 of them (2.5%) count as active. 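Single biological run; no consistent viability z cut-off exists, so the class columns, not z-scores, define the calls.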 Unmarked entries are inactive. No sequences are given here.

no.	target	viability hit class	caspase hit class	viability robust z-score	caspase robust z-score
1	SMPD2 (sphingomyelin phosphodiesterase 2)	no change	no change	0.46	2.48
2	HTR4 (5-hydroxytryptamine receptor 4)	no change	no change	0.81	-0.52
3	RETNLB (resistin like beta)	no change	no change	0.11	0.88
4	CLSTN2 (calsyntenin 2)	no change	no change	0.26	0.68
5	NPTX2 (neuronal pentraxin 2)	no change	no change	0.89	-0.42
6	PLCB3 (phospholipase C beta 3)	no change	no change	1.56	-0.66
7	MAP1S (microtubule associated protein 1S)	RV2 (reduced viability) (active)	no change	-2.92	0.72
8	ZNF620 (zinc finger protein 620)	no change	no change	-0.37	-0.66
9	DPYSL3 (dihydropyrimidinase like 3)	no change	no change	1.84	-0.1
10	ANKRD9 (ankyrin repeat domain 9)	no change	no change	0.3	-0.28
11	LDAH (lipid droplet associated hydrolase)	no change	no change	0.88	-0.68
12	CFHR3 (complement factor H related 3)	no change	no change	-0.08	-0.4
13	HSPB3 (heat shock protein family B (small) member 3)	no change	no change	-0.36	4.99
14	RER1 (retention in endoplasmic reticulum sorting receptor 1)	no change	no change	-0.14	-0.16
15	BUB3 (BUB3 mitotic checkpoint protein)	no change	no change	-0.05	1.42
16	ARHGAP25 (Rho GTPase activating protein 25)	no change	no change	-0.55	-1.21
17	TBCB (tubulin folding cofactor B)	no change	no change	-0.22	-0.85
18	SDS (serine dehydratase)	no change	no change	-0.17	3.87
19	BRSK1 (BR serine/threonine kinase 1)	no change	no change	-0.29	0.94
20	APLP1 (amyloid beta precursor like protein 1)	no change	no change	0.96	0.58
21	ECD (ecdysoneless cell cycle regulator)	no change	no change	0.62	-0.04
22	DNAI4 (dynein axonemal intermediate chain 4)	no change (active)	CA2 (caspase activation)	-0.1	5.31
23	IFIH1 (interferon induced with helicase C domain 1)	no change	no change	0.25	-1.05
